PubChem BioAssay AID652259, Drosophila RNAi Screening Center – 2013

Purpose: 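Knock-downs that push a Wingless-driven reporter up or down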 (primary screen)
Cell system: Drosophila clone 8 imaginal disc epithelial cells
Reagent: long dsRNA against Drosophila genes
Conditions: pathway stimulated by co-transfected Wingless expression plasmid
Read-out: 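Dual luciferase reads per well after Wingless plasmid stimulation: reporter firefly light and Renilla control light; activity is firefly divided by Renilla, a ratio not deposited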
Scale: firefly reporter light: higher = more Wg reporter light, before normalisation; Renilla control light: higher = more transfected or surviving cells
Rule for the call: 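a knock-down is a candidate when at least two out of four statistical tests show it departing from its plate mean; one test alone signals a weak candidate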
Calls: active = candidate regulator (raises or lowers reporter); inactive = not a candidate
In all, the deposit lists about 22,000 reagents; shown is a random part of those with a known target gene and a result. In the full data, 233 (1.1%) are marked active. 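Light values are raw, unnormalised plate reads; the ratio scores behind the reporter calls were not deposited.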 The numbers tell different reagents against one gene apart. A plus sign joins genes that one reagent is predicted to hit. Not stated in the record: the amount of reagent, the time to read-out, the dose of the treatment.

| gene knocked down | reagent | reporter change call, replicate 1 | firefly reporter light, replicate 1 | firefly reporter light, replicate 2 | Renilla control light, replicate 1 | Renilla control light, replicate 2 | activity call |
| --- | --- | --- | --- | --- | --- | --- | --- |
| Psf2 | 1 | – | 2680 | 6387 | 1221 | 2651 | inactive |
| CG18223 | 1 | – | 8763 | – | 2425 | – | inactive |
| dwg | 1 | – | 2349 | 8226 | 1136 | 2145 | inactive |
| LysD + LysB + LysC (retired record) | 1 | – | 18882 | – | 9472 | – | inactive |
| CG6602 | 1 | – | 1656 | 7848 | 1104 | 3480 | inactive |
| CCT7 | 1 | – | 17778 | – | 3248 | – | inactive |
| APP-BP1 | 1 | – | 8096 | – | 3977 | – | inactive |
| twe | 1 | – | 5701 | – | 2368 | – | inactive |
| CG11436 | 1 | – | 2467 | 5440 | 1195 | 1824 | inactive |
| Wwox | 1 | – | 16740 | 6.58e5 | 6887 | 3.10e5 | inactive |
| Wwox | 2 | – | 1.00e6 | 8.87e5 | 5.17e5 | 84 | inactive |
| CSN1a | 1 | – | 3424 | 6698 | 1254 | 3031 | inactive |
| lncRNA:CR43613 | 1 | – | 3152 | – | 1317 | – | inactive |
| puf | 1 | Wg reporter activity raised | 31161 | – | 6297 | – | active |
| S-Lap4 | 1 | – | 6589 | – | 3488 | – | inactive |
| Brca2 | 1 | Wg reporter activity lowered | 1587 | 4987 | 922 | 2461 | inactive |
| Brca2 | 2 | – | 2853 | 7387 | 720 | 1936 | inactive |
| klar | 1 | – | 19472 | – | 6902 | – | inactive |
| klar | 2 | – | 6.39e5 | 6.52e5 | 2.50e5 | 2.43e5 | inactive |
| CG43085 | 1 | – | 2097 | – | 784 | – | inactive |
| CG31156 | 1 | – | 3098 | 6101 | 1062 | 1781 | inactive |
| CG31156 | 2 | – | 12754 | – | 7408 | – | inactive |
| CG16786 | 1 | – | 3514 | 6416 | 506 | 2440 | inactive |
| CG1136 | 1 | – | 8221 | – | 3048 | – | inactive |
| CG10257 | 1 | – | 5616 | – | 2088 | – | inactive |
| PH4alphaPV | 1 | – | 1.08e6 | 1.06e6 | 5.56e5 | 2.09e5 | inactive |
| GstE10 | 1 | – | 5625 | – | 2310 | – | inactive |
| Tektin-A | 1 | – | 6017 | – | 2058 | – | inactive |
| Ptr | 1 | – | 2993 | 8547 | 930 | 2520 | inactive |
| Ptr | 2 | – | 4.17e5 | 4.33e5 | 1.80e5 | 1.40e5 | inactive |
| pll | 1 | – | 3217 | 8758 | 1232 | 2458 | inactive |
| CG9018 | 1 | – | 11217 | – | 2565 | – | inactive |
| Inx5 | 1 | – | 14391 | – | 7846 | – | inactive |
| CycB | 1 | – | 5783 | – | 1626 | – | inactive |
| Dip-C | 1 | – | 6747 | – | 2565 | – | inactive |
| CG8306 | 1 | – | 10040 | – | 3746 | – | inactive |
| Lcp65Ag3 + Lcp65Ag2 + Lcp65Ag1 | 1 | – | 1592 | 6688 | 1074 | 3121 | inactive |
| Lcp65Ag3 + Lcp65Ag2 + Lcp65Ag1 | 2 | – | 1570 | 6616 | 1290 | 3025 | inactive |
| CAH3 | 1 | – | 17608 | – | 9307 | – | inactive |
| CG5532 | 1 | – | 3014 | – | 835 | – | inactive |
| Sys1 | 1 | – | 15464 | – | 3925 | – | inactive |
| nmo | 1 | – | 2922 | – | 438 | – | inactive |
| nmo | 2 | – | 3290 | – | 1186 | – | inactive |
| MRG15 | 1 | – | 5131 | – | 2114 | – | inactive |
| Pex14 | 1 | – | 15621 | – | 5332 | – | inactive |
| sinah | 1 | – | 12868 | – | 5520 | – | inactive |
| sinah | 2 | – | 5.82e5 | 4.79e5 | 2.23e5 | 1.92e5 | inactive |
| mRRF2 | 1 | – | 17152 | – | 13703 | – | inactive |
| lncRNA:CR42862 + CG33229 | 1 | – | 16747 | – | 5315 | – | inactive |

Entries listed above marked active, once more:
| gene knocked down | reagent | reporter change call, replicate 1 | firefly reporter light, replicate 1 | firefly reporter light, replicate 2 | Renilla control light, replicate 1 | Renilla control light, replicate 2 | activity call |
| --- | --- | --- | --- | --- | --- | --- | --- |
| puf | 1 | Wg reporter activity raised | 31161 | – | 6297 | – | active |
